The nature of the test: qHTS Assay for Modulators of Lamin A Splicing. The note with it: HeLa LMNA splicing GFP/RFP minigene ratio, 48 h. The procedure, abridged: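 Read-out is the ratio of GFP to DsRed2 object intensity, acquired by 488 nm laser-scanning cytometry on HeLa lamin A-EGFP minigene reporter cells. Compound incubation 48 hrs at 37 °C in Opti-MEM with 2% FBS; DMSO 0.5% final.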
For orientation: qHTS replaces the single test concentration by a dilution series.

Setting [1] is: measured here: RFP viability control channel.
[2] abbreviates: measured here: GFP splicing reporter channel.

The list shows a part of the results. These are further read-outs of the screen, such as a control signal, another cell line or another target. No call is given for them. Compounds called inactive in the main read-out are mostly missing here. The note in brackets gives the kind of curve behind each potency; many fits are weak.

As to `O=[N+]1C2=C(CCCC2)N([O-])C12CCCC2`, the AC50 under setting [1] is 0.0158 µM [falling, full curve, poor fit].
Still for that read-out and setting: next, `CCOC(=O)N1CCN(C(=S)Nc2ccc(C)c(C)c2)CC1`: 14.1 µM [rising, single point]; `Cc1cc(NC(=O)C2CCCCC2)n(-c2nc3ccccc3[nH]2)n1`: 35.5 µM [rising, single point].
The same measure, in the same setting: next, `Cc1ccc(Nc2nc(N/N=C/c3c[nH]c4ccccc34)nc(N3CCOCC3)n2)cc1`: 2.82 µM [rising, partial curve].
On the same count and under the same terms, the same measure for `O=C(N/N=C/c1ccc[nH]1)c1ccccc1OCc1ccccc1Cl`: 15.8 µM [rising, partial curve, poor fit].
Turning to `CN(Cc1ccco1)c1ncnc2ccc(-c3ccc4c(c3)OCO4)cc12`, the AC50 runs as follows: under setting [2], 4.47 µM [rising, partial curve]; under setting [1], 35.5 µM [falling, single point].
With `Cc1cccc(CNc2ncncc2-c2ccccc2C(F)(F)F)c1`, the AC50 under setting [1] is 20 µM [rising, single point].
On to `CCCCNC(=O)c1c[nH]c2ccc(S(=O)(=O)Nc3ccc(OCC)cc3)cc2c1=O`, for which the AC50 under setting [2] is 35.5 µM [falling, partial curve, poor fit] and the AC50 under setting [1] is 20 µM [falling, partial curve, poor fit].
As for `CCOC(=O)/C=C/C(=O)OCC(=O)NC(c1ccccc1)c1ccccc1`, the AC50 under setting [2] is 35.5 µM [falling, single point].
Consider `O=C(Nc1cccc2c1CCCC2)c1ccc(Cl)c([N+](=O)[O-])c1`, for which the AC50 under setting [1] is 5.01 µM [rising, full curve, poor fit].
With `Cc1noc(C)c1S(=O)(=O)N1CCCC(C(=O)NCCC2=CCCCC2)C1` (centres undefined), under setting [2], the AC50 is 12.6 µM [rising, single point].
In the case of `O=C(CSc1nnc(-c2ccncc2)n1Cc1ccco1)Nc1nc(-c2ccccc2)cs1`, the AC50 under setting [1] is 31.6 µM [rising, single point].
On to `COc1cccc(NC(=S)N(CCN(C)C)C(C)c2ccco2)c1` (centres undefined), for which the AC50 under setting [1] was 22.4 µM [rising, single point].
Regarding `CCNc1nc(NC(C)C)nc(Oc2ccc(OCCOc3ccc(C)cc3)nn2)n1`, the AC50 is, setting by setting: under setting [2], 11.2 µM [rising, single point]; under setting [1], 14.1 µM [rising, single point].
As to `COc1ccc([N+](=O)[O-])cc1NC(=O)CSc1nc(C)cc(C)n1`, the AC50 under setting [1] is 17.8 µM [rising, single point].
Still for that read-out and setting: the same measure for `Cc1ccc2sc(NNC(=O)C3COc4ccccc4O3)nc2c1C` (centres undefined): 12.6 µM [rising, partial curve].
`CN(C)c1ccc(NC(=O)Cn2c(SCc3ccccc3F)nc3cccnc32)cc1`: the AC50 is 31.6 µM [rising, partial curve] under setting [2] and 22.4 µM [rising, partial curve] under setting [1].
As to `O=C(Nc1ccon1)c1csc2ccccc12`, the AC50 under setting [1] was 11.2 µM [rising, single point].
Regarding `Cc1cc(N2CCN(C(c3ccccc3)c3ccc(Cl)cc3)CC2)n2ncnc2n1` (centres undefined), the AC50 under setting [1] was 17.8 µM [rising, single point].
`N=c1n(CCc2ccccc2)c2ccccc2n1Cc1ccccc1F`: the AC50 by setting is: under setting [2], 35.5 µM [rising, single point]; under setting [1], 31.6 µM [rising, single point].
`COc1ccc(-c2nnc(SCC(=O)Nc3ccc(F)cc3)s2)cc1`: the AC50 under setting [2] is 15.8 µM [rising, single point].
With `C[C@H]([C@@H](N)C(=O)N[C@@H](C(=O)O)[C@@H]1O[C@H](n2ccc(=O)[nH]c2=O)[C@@H](O)[C@H]1O)[C@@H](O)c1ccc(O)cn1`, the AC50 under setting [1] is 0.0398 µM [falling, full curve].
Consider `CSc1sc(C(=O)NC(=O)NCc2ccncc2)c(C)c1-c1ccon1`, for which the AC50 is 11.2 µM [falling, partial curve, poor fit] under setting [2] and 10 µM [falling, partial curve, poor fit] under setting [1].
As to `O=C(/C=C/c1ccc(OCc2ccccc2)c(OCc2ccccc2)c1)c1cccnc1`, under setting [1], the AC50 was 7.94 µM [rising, partial curve, poor fit].
Still for that read-out and setting: the same measure for `COc1ccc(NC(=O)CSc2nncc3ccccc23)cc1`: 0.0316 µM [rising, full curve].
For `COc1ccc(-c2csc(NC(=S)NC(=O)c3cccs3)n2)cc1Br`, the AC50 by setting is: under setting [2], 3.16 µM [falling, partial curve, poor fit]; under setting [1], 2.82 µM [falling, full curve].
Consider `CCCNC(=O)Cc1c(OC)ccc2cc(Br)ccc12`, for which the AC50 under setting [2] is 5.62 µM [rising, single point] and the AC50 under setting [1] was 11.2 µM [rising, partial curve].
Turning to `Cc1ccccc1OCCNc1cc(N2CCNCC2)ccc1[N+](=O)[O-]`, the concentration at half-maximal activity (AC50) under setting [1] is 35.5 µM [falling, single point].
`Cc1ccc(OCc2nnc(SCC(=O)C(C)(C)C)n2Cc2ccco2)cc1`: the AC50 under setting [2] was 25.1 µM [rising, single point] and the AC50 under setting [1] was 17.8 µM [rising, single point].
On to `CCc1nc2ccccc2c(C(=O)OCC(=O)NCc2ccc3c(c2)OCO3)c1C`, for which the AC50 runs as follows: under setting [2], 11.2 µM [rising, partial curve]; under setting [1], 20 µM [rising, partial curve].
As to `CCn1c(/C=C/N(C(C)=O)c2ccccc2)[n+](CCCS(=O)(=O)[O-])c2cc(Cl)c(Cl)cc21`, the AC50 under setting [1] was 10 µM [falling, partial curve].
In the case of `CCc1ccccc1NC(=O)COc1cccc2ccc(C)nc12`, the AC50 was 15.8 µM [rising, partial curve, poor fit] under setting [2] and 11.2 µM [rising, partial curve] under setting [1].
In the case of `Cc1ccc(NP(=O)(Nc2ccc(C)cc2)Nc2ccc(C)cc2)cc1`, the AC50 by setting is: under setting [2], 22.4 µM [falling, single point]; under setting [1], 35.5 µM [falling, single point].
With `Cc1cccc(NS(=O)(=O)c2cc(OCC(N)=O)c(C)cc2Cl)c1`, the AC50 under setting [1] was 15.8 µM [rising, single point].
Same read-out and setting: next, `COC(=O)c1ccc(Oc2cc(C)nc(-n3nc(C)cc3C)n2)cc1`: 0.355 µM [falling, full curve, poor fit].
Take `COc1cc(OC)c(-c2c3cc(O)c(=O)cc-3oc3cc(O)c(O)cc23)cc1OC`: the concentration at half-maximal activity (AC50) reads like this: under setting [2], 12.6 µM [falling, partial curve]; under setting [1], 25.1 µM [falling, single point].
Consider `CCCc1[nH]nc2c1C(C1CCCCC1)C(C#N)=C(N)O2` (centres undefined), for which the AC50 under setting [2] is 15.8 µM [falling, single point].
On to `Cc1cc(NC(=O)CCN2C(=O)C3C4C=CC(C4)C3C2=O)ccc1Br` (centres undefined), for which the AC50 under setting [1] was 0.0316 µM [falling, full curve, poor fit].
For `COc1cc(/C=N/Nc2ccc(C(=O)O)cc2)ccc1O`, the AC50 under setting [2] is 0.02 µM [rising, full curve, poor fit].
With `CCCCn1c(/C=C/c2ccco2)nc2ccccc21`, the AC50 runs as follows: under setting [2], 28.2 µM [falling, partial curve, poor fit]; under setting [1], 28.2 µM [falling, partial curve].
On to `CCOc1ccccc1C(=O)N[C@H](C(=O)Nc1ccc(OC)c(S(=O)(=O)N2CCOCC2)c1)C(C)C`, for which the AC50 under setting [1] is 0.0316 µM [falling, full curve, poor fit].
Turning to `COc1cc(C2c3c(-c4cc(Cl)c(C)cc4O)n[nH]c3C(=O)N2Cc2cccnc2)ccc1O` (centres undefined), the AC50 by setting is: under setting [2], 10 µM [rising, single point]; under setting [1], 11.2 µM [rising, single point].
Turning to `N#C/C(=C\c1cn[nH]c1-c1ccccc1Br)C(=O)O`, the AC50 under setting [1] was 0.00316 µM [falling, full curve, poor fit].
On the same count and under the same terms, the same measure for `CC(C)OC(=O)c1cccc(C(=O)OCc2ccco2)n1`: 35.5 µM [rising, single point]; for `COC(=O)c1ccccc1NC(=O)N1c2ccccc2Sc2ccccc21`: 35.5 µM [rising, single point].
Regarding `CCC(C)Nc1nnnc2c1sc1nc3c(cc12)COC(C)(C)C3` (centres undefined), under setting [2], the AC50 was 8.91 µM [falling, partial curve, poor fit].
Consider `COC(=O)C1=C(C)N(C)C(C)=C(C(=O)OC)C1c1ccc(F)c(Br)c1`, for which the AC50 under setting [1] was 22.4 µM [rising, single point].
On the same count and under the same terms, next, `Cc1nc(-c2ccc(F)cc2)sc1CCNC(=O)c1ccco1`: 5.62 µM [falling, single point].
As to `COc1cc(NC(=O)Cn2c(C)cc3ccccc3c2=O)cc(OC)c1OC`, the AC50 under setting [2] was 0.282 µM [rising, full curve, poor fit].
On to `CN1c2ccccc2Oc2nnc(N3CCN(Cc4ccccc4)CC3)cc21`, for which the AC50 was 8.91 µM [falling, partial curve] under setting [2] and 6.31 µM [falling, full curve] under setting [1].
With `CCOC(=O)c1cc(-c2ccccc2)n(CCCC(=O)Nc2cccc(Cl)c2C)c1C`, the AC50 under setting [1] was 35.5 µM [falling, single point].
On the same count and under the same terms, the same measure for `O=C(NNS(=O)(=O)c1ccc2ccccc2c1)c1cccs1`: 35.5 µM [rising, single point]; for `CC(C)(C)NC(=O)c1cccc(NC(=O)CSc2ccc(Cl)cc2)c1`: 35.5 µM [rising, single point].
In the case of `COc1ccccc1NC(=O)Nc1nc(-c2cccnc2)nc2ccccc12`, the AC50 reads like this: under setting [2], 5.62 µM [falling, single point]; under setting [1], 3.16 µM [falling, single point].
With `CC(C)Cc1nc(N2CCN(C(=O)c3ccccc3)CC2)c(C#N)c2c1CCC2`, the AC50 is, setting by setting: under setting [2], 22.4 µM [falling, single point]; under setting [1], 15.8 µM [falling, partial curve].
On to `CCN(CC)c1ccc(/C=C(\C#N)C(=O)NCc2ccccc2)cc1`, for which, under setting [1], the AC50 was 0.0158 µM [rising, full curve, poor fit].

The term AC50 denotes the midpoint of the concentration-response curve, whichever way the signal moves.

Values taken from PubChem BioAssay AID1487 (National Center for Advancing Translational Sciences (NCATS), 2009).
